PubChem BioAssay AID504764 – Drosophila RNAi Screening Center – 2011
In all, the deposit lists about 22,000 reagents; below is a random part of those with a known target gene and a result. Of all reagents, 403 (1.9%) are marked active. 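Unnormalised raw counts per well; ratio z-scores behind the hit calls and whether each hit raises or lowers signal are not deposited.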 No sequences are given here. Not stated in the record: the amount of reagent.

Aim: 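Knock-downs that raise or lower a Notch target reporter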 (primary screen)
Cell system: Drosophila Kc167 cells
Reagents: long dsRNA against Drosophila genes
Duration: about 5 days (4 days dsRNA, then 24 h after transfection)
Conditions: transfection of constitutively active membrane-tethered Notch lacking the extracellular domain, read 24 h later
Read-out: 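Light from a Notch-responsive E(spl)m3 luciferase reporter under active Notch, with control-promoter and no-Notch reporter wells to normalise; raw counts from paired wells a and b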
Reading the numbers: induced reporter light, run 1, well a and induced reporter light, run 1, well b: higher = more light from the Notch target reporter with active Notch; control promoter light, run 1, well a and control promoter light, run 1, well b: higher = more light from the viral control promoter (cell number, transfection, viability); uninduced reporter light, run 1, well a: higher = more light from the Notch target reporter without active Notch
Hit rule: 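Hit if the duplicate-averaged log2 ratio of induced to control-promoter light gives a plate-wise z beyond ±2, or induced to uninduced beyond ±1.8; weak-control or discordant-duplicate wells dropped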
Calls: active = modifier hit (raised or lowered Notch signal); inactive = not a hit

CG12541 [DRSC17483] | induced reporter light, run 1, well a = 69905; induced reporter light, run 1, well b = 72205; control promoter light, run 1, well a = 69705; control promoter light, run 1, well b = 56740; uninduced reporter light, run 1, well a = 6205; call = inactive
CG12541 [DRSC17839] | induced reporter light, run 1, well a = 1.36e5; induced reporter light, run 1, well b = 1.51e5; control promoter light, run 1, well a = 2.46e5; control promoter light, run 1, well b = 2.51e5; uninduced reporter light, run 1, well a = 11795; call = inactive
bgcn (benign gonial cell neoplasm) [DRSC04062] | induced reporter light, run 1, well a = 1.82e5; induced reporter light, run 1, well b = 1.39e5; control promoter light, run 1, well a = 1.77e5; control promoter light, run 1, well b = 1.89e5; uninduced reporter light, run 1, well a = 12580; call = inactive
bgcn (benign gonial cell neoplasm) [DRSC04063] | induced reporter light, run 1, well a = 1.49e5; induced reporter light, run 1, well b = 1.47e5; control promoter light, run 1, well a = 1.85e5; control promoter light, run 1, well b = 1.86e5; uninduced reporter light, run 1, well a = 12685; call = active
CG3106 [DRSC18279] | induced reporter light, run 1, well a = 1.41e5; induced reporter light, run 1, well b = 1.23e5; control promoter light, run 1, well a = 1.53e5; control promoter light, run 1, well b = 1.59e5; uninduced reporter light, run 1, well a = 8950; call = inactive
CG42747 [DRSC10209] | induced reporter light, run 1, well a = 90790; induced reporter light, run 1, well b = 1.00e5; control promoter light, run 1, well a = 1.24e5; control promoter light, run 1, well b = 83735; uninduced reporter light, run 1, well a = 5292; call = inactive
CG42747 [DRSC10210] | induced reporter light, run 1, well a = 1.74e5; induced reporter light, run 1, well b = 1.86e5; control promoter light, run 1, well a = 3.25e5; control promoter light, run 1, well b = 3.20e5; uninduced reporter light, run 1, well a = 8895; call = active
CG11670 [DRSC14342] | induced reporter light, run 1, well a = 3.06e5; induced reporter light, run 1, well b = 3.03e5; control promoter light, run 1, well a = 2.59e5; control promoter light, run 1, well b = 2.53e5; uninduced reporter light, run 1, well a = 19855; call = inactive
CG3919 [DRSC10389] | induced reporter light, run 1, well a = 1.43e5; induced reporter light, run 1, well b = 1.80e5; control promoter light, run 1, well a = 1.18e5; control promoter light, run 1, well b = 1.47e5; uninduced reporter light, run 1, well a = 11800; call = inactive
Prp31 (Pre-mRNA processing factor 31) [DRSC10735] | induced reporter light, run 1, well a = 81380; induced reporter light, run 1, well b = 69015; control promoter light, run 1, well a = 52625; control promoter light, run 1, well b = 59525; uninduced reporter light, run 1, well a = 4535; call = inactive
CG4041 [DRSC18339] | induced reporter light, run 1, well a = 1.22e5; induced reporter light, run 1, well b = 1.32e5; control promoter light, run 1, well a = 2.41e5; control promoter light, run 1, well b = 2.01e5; uninduced reporter light, run 1, well a = 9880; call = inactive
CG5056 [DRSC02808] | induced reporter light, run 1, well a = 96355; induced reporter light, run 1, well b = 1.39e5; control promoter light, run 1, well a = 63900; control promoter light, run 1, well b = 76360; uninduced reporter light, run 1, well a = 16465; call = inactive

Continued; the last 2 above are carried over.
CG4041 [DRSC18339] | induced reporter light, run 1, well a = 1.22e5; induced reporter light, run 1, well b = 1.32e5; control promoter light, run 1, well a = 2.41e5; control promoter light, run 1, well b = 2.01e5; uninduced reporter light, run 1, well a = 9880; call = inactive
CG5056 [DRSC02808] | induced reporter light, run 1, well a = 96355; induced reporter light, run 1, well b = 1.39e5; control promoter light, run 1, well a = 63900; control promoter light, run 1, well b = 76360; uninduced reporter light, run 1, well a = 16465; call = inactive
CG30095 [DRSC07175] | induced reporter light, run 1, well a = 1.04e5; induced reporter light, run 1, well b = 83210; control promoter light, run 1, well a = 1.06e5; control promoter light, run 1, well b = 1.39e5; uninduced reporter light, run 1, well a = 9125; call = inactive
SkpE (SKP1-related E) [DRSC19431] | induced reporter light, run 1, well a = 83615; induced reporter light, run 1, well b = 90185; control promoter light, run 1, well a = 65715; control promoter light, run 1, well b = 1.14e5; uninduced reporter light, run 1, well a = 10285; call = inactive
CG1688 [DRSC05934] | induced reporter light, run 1, well a = 78975; induced reporter light, run 1, well b = 91855; control promoter light, run 1, well a = 42750; control promoter light, run 1, well b = 54725; uninduced reporter light, run 1, well a = 13385; call = inactive
TP53INP (Tumor protein p53 inducible nuclear protein) [DRSC08178] | induced reporter light, run 1, well a = 1.50e5; induced reporter light, run 1, well b = 1.14e5; control promoter light, run 1, well a = 1.35e5; control promoter light, run 1, well b = 78395; uninduced reporter light, run 1, well a = 11350; call = active
CG13375 [DRSC18621] | induced reporter light, run 1, well a = 1.23e5; induced reporter light, run 1, well b = 1.27e5; control promoter light, run 1, well a = 1.90e5; control promoter light, run 1, well b = 2.02e5; uninduced reporter light, run 1, well a = 9210; call = inactive
CG13793 [DRSC02297] | induced reporter light, run 1, well a = 98685; induced reporter light, run 1, well b = 1.54e5; control promoter light, run 1, well a = 1.06e5; control promoter light, run 1, well b = 1.58e5; uninduced reporter light, run 1, well a = 22760; call = inactive
